Results published in PMC7018513.
No constants are given. Whether binding was seen depends on the method and setting. Some binding calls cover weakened binding; strength is not graded here. For part of these data: Tags and fused reporters may be left off the sequences shown.

Columns and labels:
[1] = biological target: T1, BBS4 (Bos taurus (endogenous in bovine retina)) (UniProt Q1JQ97); assay: cryo-EM structure; BBSome-only class (no ARL6), 3.1 Å; the sample was 0.7 mg/ml BBSome mixed with 2x molar excess of ARL6 and 1 mM GTP; classes separated by focused classification; both purified
T1 sequence: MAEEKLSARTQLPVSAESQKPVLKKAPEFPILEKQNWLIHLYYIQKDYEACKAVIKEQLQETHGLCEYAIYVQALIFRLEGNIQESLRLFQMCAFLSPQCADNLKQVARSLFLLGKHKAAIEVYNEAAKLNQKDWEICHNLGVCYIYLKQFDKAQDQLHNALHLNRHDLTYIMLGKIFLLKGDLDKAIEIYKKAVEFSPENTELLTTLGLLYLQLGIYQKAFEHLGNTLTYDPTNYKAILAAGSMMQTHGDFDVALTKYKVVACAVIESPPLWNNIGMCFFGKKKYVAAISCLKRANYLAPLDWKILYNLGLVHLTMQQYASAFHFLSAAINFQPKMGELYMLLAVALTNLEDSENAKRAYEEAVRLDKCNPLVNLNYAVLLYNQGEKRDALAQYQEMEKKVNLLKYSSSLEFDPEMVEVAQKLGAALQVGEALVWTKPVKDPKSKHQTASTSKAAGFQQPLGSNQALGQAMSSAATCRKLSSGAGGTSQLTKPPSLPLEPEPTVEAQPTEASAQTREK

[2] = biological target: T2, BBS1 (Bos taurus (endogenous in bovine retina)); assay: cryo-EM structure; BBSome:ARL6:GTP class, 3.5 Å; 0.7 mg/ml BBSome (~18 μM) mixed with 2x molar excess of ARL6 (36 μM) and 1 mM GTP, 1 hr at 4°C; both purified
T2 sequence: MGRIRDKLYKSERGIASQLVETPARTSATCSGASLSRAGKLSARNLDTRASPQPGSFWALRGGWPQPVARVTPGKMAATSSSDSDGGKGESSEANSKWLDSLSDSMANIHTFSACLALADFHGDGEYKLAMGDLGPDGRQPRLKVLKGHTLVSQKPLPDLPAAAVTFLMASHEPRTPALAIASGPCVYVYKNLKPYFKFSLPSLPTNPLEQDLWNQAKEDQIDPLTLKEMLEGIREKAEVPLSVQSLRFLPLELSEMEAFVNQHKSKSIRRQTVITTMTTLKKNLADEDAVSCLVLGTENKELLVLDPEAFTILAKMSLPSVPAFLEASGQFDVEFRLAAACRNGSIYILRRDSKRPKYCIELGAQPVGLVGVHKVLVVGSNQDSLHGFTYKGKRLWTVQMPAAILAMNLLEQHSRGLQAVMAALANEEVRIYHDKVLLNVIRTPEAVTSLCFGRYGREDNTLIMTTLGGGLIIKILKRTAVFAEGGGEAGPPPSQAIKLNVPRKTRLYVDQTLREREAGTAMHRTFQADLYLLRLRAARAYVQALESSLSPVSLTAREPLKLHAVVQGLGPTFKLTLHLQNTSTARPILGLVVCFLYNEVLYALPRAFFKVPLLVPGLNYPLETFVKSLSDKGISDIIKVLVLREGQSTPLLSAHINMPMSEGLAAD

B1: BBS18 (protein, UniProt G3N2W1 1-69)
chain: MAETKSMFREVLPKQGQLYVEDITTMVLCKPKLLPLKSLTLEKLEKMQQAAQDTIHQQEMTEKEQKITH
binding [1]: binds

B2: Flag-∆16NARL6(Q73L) (enzyme, UniProt Q0IIM2 17-186)
chain: EVHVLCLGLDNSGKTTIINKLKPSNAQSQDIVPTIGFSIQKFKSSSLSFTVFDMSGLGRYRNLWEHYYKEGQAIIFVIDSSDKLRMVVAKEELRTLLNHPDIKHRRIPILFFANKMDLRDALTSVKVSQLLCLEDIKDKPWHICASDAIKGEGLQEGVDWLQDQIQSVKT
binding [2]: binds

B3: BBS1 (protein, UniProt A0AAA9RX20 1-668)
chain: MGRIRDKLYKSERGIASQLVETPARTSATCSGASLSRAGKLSARNLDTRASPQPGSFWALRGGWPQPVARVTPGKMAATSSSDSDGGKGESSEANSKWLDSLSDSMANIHTFSACLALADFHGDGEYKLAMGDLGPDGRQPRLKVLKGHTLVSQKPLPDLPAAAVTFLMASHEPRTPALAIASGPCVYVYKNLKPYFKFSLPSLPTNPLEQDLWNQAKEDQIDPLTLKEMLEGIREKAEVPLSVQSLRFLPLELSEMEAFVNQHKSKSIRRQTVITTMTTLKKNLADEDAVSCLVLGTENKELLVLDPEAFTILAKMSLPSVPAFLEASGQFDVEFRLAAACRNGSIYILRRDSKRPKYCIELGAQPVGLVGVHKVLVVGSNQDSLHGFTYKGKRLWTVQMPAAILAMNLLEQHSRGLQAVMAALANEEVRIYHDKVLLNVIRTPEAVTSLCFGRYGREDNTLIMTTLGGGLIIKILKRTAVFAEGGGEAGPPPSQAIKLNVPRKTRLYVDQTLREREAGTAMHRTFQADLYLLRLRAARAYVQALESSLSPVSLTAREPLKLHAVVQGLGPTFKLTLHLQNTSTARPILGLVVCFLYNEVLYALPRAFFKVPLLVPGLNYPLETFVKSLSDKGISDIIKVLVLREGQSTPLLSAHINMPMSEGLAAD
binding [1]: binds
